Experimental data: PubChem BioAssay AID504764 (Drosophila RNAi Screening Center, 2011)
The deposit covers about 22,000 reagents; below is a random part of those that have a named target and a result. Over the whole deposit, 403 (1.9%) were called active. 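Unnormalised raw counts per well; ratio z-scores behind the hit calls and whether each hit raises or lowers signal are not deposited.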 Names joined by + are all predicted targets of the reagent. The record does not give: the amount of reagent.

- Screen: 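Knock-downs that raise or lower a Notch target reporter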 (primary screen)
- Cell system: Drosophila Kc167 cells
- Reagent: long dsRNA against Drosophila genes
- Timing: about 5 days (4 days dsRNA, then 24 h after transfection)
- Challenge: transfection of constitutively active membrane-tethered Notch lacking the extracellular domain, read 24 h later
- Read-out: 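Light from a Notch-responsive E(spl)m3 luciferase reporter under active Notch, with control-promoter and no-Notch reporter wells to normalise; raw counts from paired wells a and b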
- Scale: induced reporter light, run 1, well a and induced reporter light, run 1, well b: higher = more light from the Notch target reporter with active Notch; control promoter light, run 1, well a and control promoter light, run 1, well b: higher = more light from the viral control promoter (cell number, transfection, viability); uninduced reporter light, run 1, well a: higher = more light from the Notch target reporter without active Notch
- Rule for the call: 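Wells with low control signal or poorly matching duplicates excluded; duplicates averaged; per source plate, z beyond ±2 for induced/control log2 ratio or beyond ±1.8 for induced/uninduced marks a hit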
- Meaning of the calls: active = modifier hit (raised or lowered Notch signal); inactive = not a hit

| Target gene | dsRNA | induced reporter light, run 1, well a | induced reporter light, run 1, well b | control promoter light, run 1, well a | control promoter light, run 1, well b | uninduced reporter light, run 1, well a | Outcome |
| --- | --- | --- | --- | --- | --- | --- | --- |
| CG6153 | DRSC02935 | 2.22e5 | 1.95e5 | 1.88e5 | 2.10e5 | 15305 | inactive |
| Hml (Hemolectin) | DRSC11183 | 2.48e5 | 2.11e5 | 3.28e5 | 2.25e5 | 14515 | inactive |
| Dscam3 (Down syndrome cell adhesion molecule 3) | DRSC14525 | 2.35e5 | 2.13e5 | 2.00e5 | 2.23e5 | 18150 | inactive |
| Dscam3 (Down syndrome cell adhesion molecule 3) | DRSC16376 | 2.28e5 | 2.08e5 | 1.71e5 | 1.79e5 | 15842 | inactive |
| bark (bark beetle) | DRSC00635 | 1.01e5 | 84500 | 95560 | 1.00e5 | 5780 | inactive |
| CG3558 | DRSC00615 | 1.64e5 | 1.69e5 | 1.49e5 | 1.68e5 | 14725 | inactive |
| Eglp3 (Entomoglyceroporin 3) | DRSC04293 | 1.30e5 | 1.20e5 | 1.34e5 | 1.25e5 | 10815 | inactive |
| CR15821 (pseudo) | DRSC08481 | 1.36e5 | 1.33e5 | 1.62e5 | 1.47e5 | 8195 | inactive |
| TwdlH (TweedleH) | DRSC14735 | 1.37e5 | 1.35e5 | 2.01e5 | 1.81e5 | 14060 | inactive |
| Lint-1 (l(3)mbt interacting protein 1) | DRSC19822 | 1.11e5 | 98960 | 90240 | 1.03e5 | 10440 | inactive |
| PGS1 (Phosphatidylglycerophosphate synthase 1) | DRSC16304 | 1.85e5 | 1.82e5 | 1.74e5 | 1.80e5 | 14950 | inactive |
| CG15237 | DRSC04971 | 1.90e5 | 1.70e5 | 2.18e5 | 2.35e5 | 19892 | inactive |
| CG12985 | DRSC19505 | 29425 | 20385 | 20970 | 19805 | 2860 | inactive |
| Acsx3 (Acyl-CoA synthetase X3) | DRSC14309 | 1.33e5 | 2.01e5 | 1.89e5 | 2.11e5 | 18150 | inactive |
| CG31760 | DRSC02590 | 1.32e5 | 1.48e5 | 1.23e5 | 1.45e5 | 11015 | inactive |
| CG14756 | DRSC06491 | 2.04e5 | 2.12e5 | 2.41e5 | 2.22e5 | 17688 | inactive |
| CG10903 | DRSC14281 | 44780 | 38710 | 30125 | 26170 | 3045 | inactive |
| CG34297 | DRSC12410 | 1.90e5 | 1.26e5 | 1.42e5 | 1.19e5 | 15140 | inactive |
| ZnT41F (Zinc transporter 41F) | DRSC04850 | 1.70e5 | 2.35e5 | 1.72e5 | 1.57e5 | 13300 | inactive |
| CG31248 | DRSC22722 | – | – | – | – | – | inactive |

Continued, starting with the last 5 of the part before.
| Target gene | dsRNA | induced reporter light, run 1, well a | induced reporter light, run 1, well b | control promoter light, run 1, well a | control promoter light, run 1, well b | uninduced reporter light, run 1, well a | Outcome |
| --- | --- | --- | --- | --- | --- | --- | --- |
| CG14756 | DRSC06491 | 2.04e5 | 2.12e5 | 2.41e5 | 2.22e5 | 17688 | inactive |
| CG10903 | DRSC14281 | 44780 | 38710 | 30125 | 26170 | 3045 | inactive |
| CG34297 | DRSC12410 | 1.90e5 | 1.26e5 | 1.42e5 | 1.19e5 | 15140 | inactive |
| ZnT41F (Zinc transporter 41F) | DRSC04850 | 1.70e5 | 2.35e5 | 1.72e5 | 1.57e5 | 13300 | inactive |
| CG31248 | DRSC22722 | – | – | – | – | – | inactive |
| sno (strawberry notch) | DRSC20378 | 2.59e5 | 2.56e5 | 3.21e5 | 3.43e5 | 19140 | inactive |
| CG42299 + CG42300 | DRSC19680 | 60675 | 46965 | 65465 | 52230 | 8032 | inactive |
| CG42299 + CG42300 | DRSC19815 | 84465 | 50240 | 77105 | 58060 | 10790 | inactive |
| Grp170 (Grp170 co-chaperone) | DRSC18524 | 1.89e5 | 1.84e5 | 2.48e5 | 2.85e5 | 14075 | inactive |
| dmrt93B (doublesex-Mab related 93B) | DRSC15865 | 1.85e5 | 1.97e5 | 2.24e5 | 2.03e5 | 14835 | inactive |
| CCHa2-R (CCHamide-2 receptor) | DRSC04825 | 89295 | 96920 | 1.14e5 | 1.27e5 | 5210 | inactive |
| CCHa2-R (CCHamide-2 receptor) | DRSC04870 | 1.45e5 | 1.38e5 | 1.16e5 | 1.13e5 | 7330 | active |
| CCHa2-R (CCHamide-2 receptor) | DRSC04871 | 1.62e5 | 1.46e5 | 1.55e5 | 1.51e5 | 11180 | inactive |
| aph-1 (anterior pharynx defective 1) | DRSC00547 | 1.38e5 | 1.48e5 | 1.43e5 | 2.07e5 | 13770 | inactive |
| P5cr (Pyrroline 5-carboyxlate reductase) | DRSC16782 | 1.81e5 | 1.34e5 | 2.01e5 | 2.07e5 | 14285 | inactive |
| CHOp24 | DRSC18310 | 2.38e5 | 2.90e5 | 2.75e5 | 2.73e5 | 13120 | inactive |
| Rab9Db + Rab9D + Rab9Fa + 1 more | DRSC17662 | 65240 | 70035 | 84810 | 61620 | 5655 | inactive |
| CG6094 | DRSC02927 | 2.22e5 | 2.26e5 | 1.78e5 | 1.78e5 | 15232 | inactive |
| CG6340 | DRSC19987 | 93795 | 95215 | 1.28e5 | 1.06e5 | 9605 | inactive |
| CG4716 | DRSC06884 | 1.39e5 | 1.70e5 | 1.48e5 | 1.70e5 | 12605 | inactive |
| Cyp4p1 (Cytochrome P450 4p1) | DRSC07372 | 1.83e5 | 1.86e5 | 2.69e5 | 2.40e5 | 18332 | inactive |
| Xrcc2 (X-ray repair cross complementing 2) | DRSC19984 | 82650 | 73335 | 1.02e5 | 75510 | 11475 | inactive |
| Ubqn (Ubiquilin) | DRSC19581 | 1.25e5 | 1.30e5 | 95660 | 49685 | 8765 | inactive |
| CG11601 | DRSC00318 | 1.02e5 | 1.08e5 | 86100 | 57130 | 8978 | inactive |
| CG1105 | DRSC12528 | 1.22e5 | 1.35e5 | 81600 | 71020 | 10570 | inactive |
| chif (chiffon) | DRSC03508 | 1.55e5 | 1.62e5 | 1.57e5 | 1.53e5 | 17695 | active |
| CG8326 | DRSC20103 | 98545 | 1.01e5 | 87860 | 52960 | 8065 | inactive |
| CG7300 | DRSC03044 | 2.47e5 | 3.05e5 | 2.11e5 | 2.70e5 | 21665 | inactive |
| Spn77Ba (Serpin 77Ba) | DRSC10693 | 1.27e5 | 1.40e5 | 63825 | 74015 | 10160 | inactive |
| CG10700 | DRSC02096 | 56510 | 42850 | 44455 | 33515 | 1935 | inactive |
| Ziz (Zizimin) | DRSC02506 | 1.30e5 | 1.26e5 | 1.51e5 | 1.43e5 | 7865 | inactive |
| Ziz (Zizimin) | DRSC02976 | 1.63e5 | 1.45e5 | 1.96e5 | 1.78e5 | 10635 | inactive |
| ZnT77C (Zinc transporter 77C) | DRSC11766 | 1.66e5 | 1.62e5 | 1.33e5 | 1.22e5 | 9092 | inactive |
| ZnT77C (Zinc transporter 77C) | DRSC11767 | 1.84e5 | 1.22e5 | 1.06e5 | 1.15e5 | 9985 | inactive |
| Nsun2 (NOP2-Sun domain family, member 2) | DRSC18662 | 1.68e5 | 2.01e5 | 2.29e5 | 2.13e5 | 10890 | inactive |
